The supplement of paper PMC10849652
The other results are listed elsewhere or left out.

The chains behind the UniProt entries cited, without tags or fusion partners. Where a name states a change or a piece, a line headed by the entry shows the natural chain unless it says otherwise.
UniProt Q9BPZ7, whole entry, looked up: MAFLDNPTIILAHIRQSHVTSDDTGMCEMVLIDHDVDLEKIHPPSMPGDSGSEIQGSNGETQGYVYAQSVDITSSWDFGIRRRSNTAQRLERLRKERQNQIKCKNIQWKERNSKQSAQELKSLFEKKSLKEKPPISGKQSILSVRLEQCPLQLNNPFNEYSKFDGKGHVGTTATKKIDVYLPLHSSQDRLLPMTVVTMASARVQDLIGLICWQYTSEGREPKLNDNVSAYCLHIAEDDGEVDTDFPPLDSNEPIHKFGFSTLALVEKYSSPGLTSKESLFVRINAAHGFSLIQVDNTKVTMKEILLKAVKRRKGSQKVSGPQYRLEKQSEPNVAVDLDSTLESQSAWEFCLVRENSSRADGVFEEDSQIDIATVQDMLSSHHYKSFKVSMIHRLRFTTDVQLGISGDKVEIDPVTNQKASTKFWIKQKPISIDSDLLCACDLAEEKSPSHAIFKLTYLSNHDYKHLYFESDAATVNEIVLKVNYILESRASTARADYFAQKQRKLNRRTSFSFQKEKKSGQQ
UniProt P07948: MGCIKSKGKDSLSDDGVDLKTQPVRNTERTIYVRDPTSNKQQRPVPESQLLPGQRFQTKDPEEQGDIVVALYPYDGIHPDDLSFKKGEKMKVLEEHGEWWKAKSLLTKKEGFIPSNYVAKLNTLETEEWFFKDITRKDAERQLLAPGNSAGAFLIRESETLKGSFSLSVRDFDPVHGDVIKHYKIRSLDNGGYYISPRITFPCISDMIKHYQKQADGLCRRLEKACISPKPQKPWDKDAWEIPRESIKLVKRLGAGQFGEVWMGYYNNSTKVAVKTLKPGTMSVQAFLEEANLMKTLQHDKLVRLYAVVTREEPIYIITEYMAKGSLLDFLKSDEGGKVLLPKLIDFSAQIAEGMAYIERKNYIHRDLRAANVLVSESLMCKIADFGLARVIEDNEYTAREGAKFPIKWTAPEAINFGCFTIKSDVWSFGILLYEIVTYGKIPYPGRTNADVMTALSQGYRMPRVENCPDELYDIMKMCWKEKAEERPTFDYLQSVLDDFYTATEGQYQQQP
UniProt Q9UI95, whole entry, looked up: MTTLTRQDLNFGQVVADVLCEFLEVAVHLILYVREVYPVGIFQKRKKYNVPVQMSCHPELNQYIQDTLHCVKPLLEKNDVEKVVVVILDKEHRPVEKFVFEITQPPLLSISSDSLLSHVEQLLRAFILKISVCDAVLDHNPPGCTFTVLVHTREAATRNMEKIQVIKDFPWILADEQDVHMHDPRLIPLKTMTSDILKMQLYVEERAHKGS
UniProt Q9H8J5: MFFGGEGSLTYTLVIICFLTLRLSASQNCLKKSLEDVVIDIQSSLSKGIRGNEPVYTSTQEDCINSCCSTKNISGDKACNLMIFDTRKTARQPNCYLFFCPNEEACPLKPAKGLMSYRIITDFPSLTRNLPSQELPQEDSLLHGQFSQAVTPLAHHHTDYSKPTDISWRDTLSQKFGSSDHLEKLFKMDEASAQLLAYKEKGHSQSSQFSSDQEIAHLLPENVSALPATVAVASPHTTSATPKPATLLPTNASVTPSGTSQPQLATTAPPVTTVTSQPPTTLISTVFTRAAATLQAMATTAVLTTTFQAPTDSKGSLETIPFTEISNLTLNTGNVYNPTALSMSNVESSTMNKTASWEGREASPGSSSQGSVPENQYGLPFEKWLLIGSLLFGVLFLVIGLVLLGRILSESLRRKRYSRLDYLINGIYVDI
UniProt Q9H063: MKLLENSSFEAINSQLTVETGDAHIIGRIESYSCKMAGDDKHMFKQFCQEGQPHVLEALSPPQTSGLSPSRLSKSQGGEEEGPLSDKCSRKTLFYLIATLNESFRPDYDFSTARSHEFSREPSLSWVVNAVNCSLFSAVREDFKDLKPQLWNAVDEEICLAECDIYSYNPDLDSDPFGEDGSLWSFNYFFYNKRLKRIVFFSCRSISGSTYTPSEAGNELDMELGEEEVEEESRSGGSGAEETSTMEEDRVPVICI
UniProt P51884: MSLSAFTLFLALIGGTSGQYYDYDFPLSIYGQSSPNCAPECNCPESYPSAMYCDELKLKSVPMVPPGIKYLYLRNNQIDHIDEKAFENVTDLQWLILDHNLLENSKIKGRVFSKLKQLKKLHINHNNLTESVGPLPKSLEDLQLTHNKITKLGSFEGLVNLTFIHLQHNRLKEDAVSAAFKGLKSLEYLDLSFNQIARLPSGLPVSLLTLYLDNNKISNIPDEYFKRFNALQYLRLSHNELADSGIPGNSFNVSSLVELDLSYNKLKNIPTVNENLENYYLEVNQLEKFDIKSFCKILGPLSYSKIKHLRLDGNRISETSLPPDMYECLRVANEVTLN
UniProt Q9Y5V3: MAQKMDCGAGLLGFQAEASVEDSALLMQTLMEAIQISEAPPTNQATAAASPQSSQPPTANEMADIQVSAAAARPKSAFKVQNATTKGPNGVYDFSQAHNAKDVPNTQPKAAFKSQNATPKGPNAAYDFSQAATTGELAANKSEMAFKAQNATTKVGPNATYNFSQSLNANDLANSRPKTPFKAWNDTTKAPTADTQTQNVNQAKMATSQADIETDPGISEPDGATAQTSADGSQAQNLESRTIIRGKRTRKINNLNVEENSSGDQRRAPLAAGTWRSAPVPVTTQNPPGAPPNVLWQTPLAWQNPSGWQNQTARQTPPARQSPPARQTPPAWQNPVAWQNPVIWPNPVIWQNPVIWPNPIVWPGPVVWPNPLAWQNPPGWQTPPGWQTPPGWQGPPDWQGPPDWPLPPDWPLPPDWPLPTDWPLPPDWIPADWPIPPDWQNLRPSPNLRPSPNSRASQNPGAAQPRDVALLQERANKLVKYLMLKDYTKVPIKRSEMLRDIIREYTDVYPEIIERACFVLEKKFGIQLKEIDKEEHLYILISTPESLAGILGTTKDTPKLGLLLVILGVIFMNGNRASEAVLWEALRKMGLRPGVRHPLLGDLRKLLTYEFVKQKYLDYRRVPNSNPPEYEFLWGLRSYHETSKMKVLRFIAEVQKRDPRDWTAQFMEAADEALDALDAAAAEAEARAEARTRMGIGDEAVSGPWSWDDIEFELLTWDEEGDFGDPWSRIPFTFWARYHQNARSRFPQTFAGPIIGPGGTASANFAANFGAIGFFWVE
UniProt P27816: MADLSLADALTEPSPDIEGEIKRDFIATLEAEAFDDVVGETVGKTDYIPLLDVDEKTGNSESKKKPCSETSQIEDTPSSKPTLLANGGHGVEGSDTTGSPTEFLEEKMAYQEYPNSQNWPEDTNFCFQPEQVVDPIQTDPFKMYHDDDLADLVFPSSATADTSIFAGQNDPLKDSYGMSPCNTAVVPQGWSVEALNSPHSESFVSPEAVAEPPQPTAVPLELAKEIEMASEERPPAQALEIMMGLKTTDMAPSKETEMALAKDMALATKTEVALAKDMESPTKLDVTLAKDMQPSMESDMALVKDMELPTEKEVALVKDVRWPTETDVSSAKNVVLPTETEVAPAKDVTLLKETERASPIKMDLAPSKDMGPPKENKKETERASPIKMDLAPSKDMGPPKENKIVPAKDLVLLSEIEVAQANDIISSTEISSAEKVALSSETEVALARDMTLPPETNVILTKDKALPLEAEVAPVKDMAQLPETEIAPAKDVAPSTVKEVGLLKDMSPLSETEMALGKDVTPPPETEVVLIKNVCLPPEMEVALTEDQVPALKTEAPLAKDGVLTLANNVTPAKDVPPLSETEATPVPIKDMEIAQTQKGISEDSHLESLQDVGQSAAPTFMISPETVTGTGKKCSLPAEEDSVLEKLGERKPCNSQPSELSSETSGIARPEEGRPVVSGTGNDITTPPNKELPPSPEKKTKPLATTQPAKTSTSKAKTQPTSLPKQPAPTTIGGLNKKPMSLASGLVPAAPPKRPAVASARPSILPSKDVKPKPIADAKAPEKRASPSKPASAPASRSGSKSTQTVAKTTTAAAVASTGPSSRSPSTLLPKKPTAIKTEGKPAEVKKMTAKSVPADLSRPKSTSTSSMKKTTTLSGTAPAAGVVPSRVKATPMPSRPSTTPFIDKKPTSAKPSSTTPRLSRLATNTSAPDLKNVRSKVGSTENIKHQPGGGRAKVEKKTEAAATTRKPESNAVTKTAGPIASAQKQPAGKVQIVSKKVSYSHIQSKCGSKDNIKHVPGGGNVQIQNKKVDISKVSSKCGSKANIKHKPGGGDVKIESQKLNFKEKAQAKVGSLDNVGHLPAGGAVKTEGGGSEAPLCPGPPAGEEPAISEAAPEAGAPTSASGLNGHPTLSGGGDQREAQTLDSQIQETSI
UniProt Q8IZL2, whole entry, looked up: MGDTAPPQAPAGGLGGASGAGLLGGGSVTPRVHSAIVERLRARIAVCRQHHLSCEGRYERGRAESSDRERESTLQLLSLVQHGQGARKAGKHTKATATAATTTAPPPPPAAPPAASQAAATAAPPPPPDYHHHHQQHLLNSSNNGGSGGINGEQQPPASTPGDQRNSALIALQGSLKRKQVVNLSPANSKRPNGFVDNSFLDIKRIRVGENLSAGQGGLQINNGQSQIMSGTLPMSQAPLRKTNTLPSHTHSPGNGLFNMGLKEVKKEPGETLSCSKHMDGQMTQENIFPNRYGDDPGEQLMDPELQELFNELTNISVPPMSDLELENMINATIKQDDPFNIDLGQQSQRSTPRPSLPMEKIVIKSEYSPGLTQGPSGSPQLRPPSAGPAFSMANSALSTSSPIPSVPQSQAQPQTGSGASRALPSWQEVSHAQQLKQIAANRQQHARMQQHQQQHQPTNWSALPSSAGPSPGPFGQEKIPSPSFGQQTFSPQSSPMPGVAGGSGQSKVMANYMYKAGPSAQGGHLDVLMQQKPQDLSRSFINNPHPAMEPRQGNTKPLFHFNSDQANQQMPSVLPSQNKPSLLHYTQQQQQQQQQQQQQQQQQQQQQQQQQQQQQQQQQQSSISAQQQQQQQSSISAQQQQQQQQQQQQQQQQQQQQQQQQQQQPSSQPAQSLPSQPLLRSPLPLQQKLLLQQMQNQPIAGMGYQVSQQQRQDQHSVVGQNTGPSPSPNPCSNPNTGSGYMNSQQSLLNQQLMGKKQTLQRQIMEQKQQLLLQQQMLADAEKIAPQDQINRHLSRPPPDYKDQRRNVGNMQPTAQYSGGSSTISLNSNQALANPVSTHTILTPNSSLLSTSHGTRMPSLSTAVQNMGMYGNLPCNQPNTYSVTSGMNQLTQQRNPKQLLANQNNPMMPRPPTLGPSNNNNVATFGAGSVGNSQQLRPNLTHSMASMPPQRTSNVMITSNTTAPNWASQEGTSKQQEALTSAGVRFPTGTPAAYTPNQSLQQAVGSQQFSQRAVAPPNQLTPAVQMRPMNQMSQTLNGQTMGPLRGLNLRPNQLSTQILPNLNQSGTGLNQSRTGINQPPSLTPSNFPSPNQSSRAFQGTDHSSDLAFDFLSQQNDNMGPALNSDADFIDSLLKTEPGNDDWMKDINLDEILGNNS
UniProt Q9UPY8, whole entry, looked up: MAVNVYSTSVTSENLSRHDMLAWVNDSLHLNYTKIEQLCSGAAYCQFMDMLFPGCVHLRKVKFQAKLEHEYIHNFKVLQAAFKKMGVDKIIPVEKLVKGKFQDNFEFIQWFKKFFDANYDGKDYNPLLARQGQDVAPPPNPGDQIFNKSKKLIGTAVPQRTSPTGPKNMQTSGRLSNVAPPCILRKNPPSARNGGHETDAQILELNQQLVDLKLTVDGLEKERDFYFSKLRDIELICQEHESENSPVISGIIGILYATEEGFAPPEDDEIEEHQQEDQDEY

Key:
Assay in all cases: log2 fold change, soluble protein after heating vs DMSO (PISA); higher = thermal stabilisation; K562 cells, 10 uM, 30 min; active = over 0.2 and 3.5 SD of the protein, either way, in both replicates (recomputed)
[1] = compound: Cc1cccc(CC(=O)N2CCc3c2ccc(-c2cn(C)c4ncnc(N)c24)c3F)n1
How it was run: (§1)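 K562 cells at 2×10^6 cells/mL were treated with 10 μM compound for 30 min. Aliquots were heated for 3 min across 48°C-58°C, pooled, and extracted in PBS with 0.5% NP-40 at 4°C; soluble protein was the supernatant after 21,000xg for 90 min. Soluble protein was quantified by TMTpro 16plex LC-MS/MS with channel sums equalised, and reported as log2 fold change in thermal stability against DMSO controls, with values from duplicates.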

[2] = compound: Cn1cc(-c2ccc3nnc(C(F)(F)c4ccc5ncccc5c4)n3n2)cn1
How it was run: as §1

[3] = compound: Cc1cn(-c2cc(NC(=O)c3ccc(C)c(Nc4nccc(-c5cccnc5)n4)c3)cc(C(F)(F)F)c2)cn1 [nilotinib]
How it was run: as §1

[4] = compound: Cc1nc(Nc2n[nH]c3c2CN(C(=O)N[C@H](CN(C)C)c2ccccc2)C3(C)C)c2sccc2n1
How it was run: as §1

[5] = compound: Cc1ncc(-c2ccnc(Nc3ccc(S(C)(=O)=O)cc3)n2)n1C(C)C
How it was run: as §1

[6] = compound: Cn1cc(-c2ccc3c(c2)CCN3C(=O)Cc2cccc(C(F)(F)F)c2)c2c(N)ncnc21
How it was run: as §1

[7] = compound: Cn1cncc1[C@@](N)(c1ccc(Cl)cc1)c1ccc2c(c1)c(-c1cccc(Cl)c1)cc(=O)n2C [tipifarnib]
How it was run: as §1

[8] = compound: Cc1nc(Nc2ncc(C(=O)Nc3c(C)cccc3Cl)s2)cc(N2CCN(CCO)CC2)n1 [dasatinib]
How it was run: as §1

[9] = compound: FC(F)(F)c1ccc(/C=C/c2nc(COc3ccc(CCCCn4ccnn4)cc3)co2)cc1 [mubritinib]
How it was run: as §1

[10] = compound: Cc1ccc(NC(=O)c2ccc(CN3CC[C@H](N(C)C)C3)c(C(F)(F)F)c2)cc1Nc1nccc(-c2cncnc2)n1 [bafetinib]
How it was run: as §1

Measured: log2 fold change

MAPKAP1 (UniProt Q9BPZ7)
inactive: [1] 0.155 | [2] -0.065

LYN isoform 2 (UniProt P07948)
inactive: [3] -0.001 | [4] -0.418 | [5] -0.006 | [6] 0 | [7] 0.075

MAD2L2 (UniProt Q9UI95)
inactive: [1] 0.069 | [8] -0.104 | [6] 0.091

LSM14A, A0A140TA76
inactive: [9] 0.133

MANSC1 (UniProt Q9H8J5)
inactive: [3] -0.075 | [4] 0.12 | [5] -0.116 | [6] 0.089

MAF1 (UniProt Q9H063)
inactive: [2] 0.064

LUM (UniProt P51884)
inactive: [3] 0.449 | [4] 0.036 | [8] 0.002 | [5] 0.257 | [6] 0.177 | [2] -0.075 | [7] 0.055

MAGED1 isoform 2 (UniProt Q9Y5V3)
inactive: [3] -0.035 | [4] -0.008 | [8] 0.057 | [5] -0.082 | [6] 0.111 | [7] -0.104

MAP4 isoform 5 (UniProt P27816)
inactive: [10] -0.028 | [3] -0.181 | [4] 0.028 | [5] 0 | [2] -0.037 | [7] 0.066 | [9] 0.027

MAML2 (UniProt Q8IZL2)
inactive: [2] -0.033

MAPRE3 isoform 2 (UniProt Q9UPY8)
inactive: [3] -0.539 | [4] -0.355 | [5] -0.118 | [6] -0.028 | [7] 0.201

Taken from the results shown (two entries):
MAGED1 isoform 2 (UniProt Q9Y5V3)
inactive: [3] -0.035 | [4] -0.008 | [8] 0.057 | [5] -0.082 | [6] 0.111 | [7] -0.104

MAP4 isoform 5 (UniProt P27816)
inactive: [10] -0.028 | [3] -0.181 | [4] 0.028 | [5] 0 | [2] -0.037 | [7] 0.066 | [9] 0.027
